Experiments:
[1] = system: normal human lung fibroblasts (NHLF); assay: Phenotypic high-content assay (HCA) of TGF–β1–induced fibroblast–to–myofibroblast differentiation; type: cell-based
Protocol: (§1) The plate was washed 3 times with starvation medium, e.g. fibroblast basal medium (FBM, Lonza) supplemented with 0.1% faf BSA, 100 units / ml of penicillin and 100 μg / ml of streptomycin and 250 ng / ml amphotericin B, and then starved for 24 h in 30 μl volume. NHLF were differentiated into myofibroblasts by incubation with 5 ng / ml TGF–β1 (from a stock of 20 μg / ml in 4 mM HCl, 1 mg / ml BSA) for 48 h. Compounds were prepared as 5x stocks in starvation medium and added to the starved cells to a final 1x concentration concomitant with TGF–β1 addition. The final DMSO concentration in the assay was 0.6% in all wells. 48 h after TGF–β1 addition, the medium was removed and the cells were fixed in methanol for 10 min at room temperature (RT). After fixation, cells were washed 3 times with 1 x PBS and either stored at 4°C for up to 3 days or further processed. […] Images were acquired on the Opera Phenix confocal high–content screening system (Perkin Elmer) using the 20–x water immersion lens.
(§2) DAPI stained nuclei were used to identify cells. α–SMA and FN regions were then identified and mapped to the corresponding nuclei for background correction, cell segmentation and cell feature computation to identify, classify and weigh over 400 features per cell. […]

[2] = system: normal human lung fibroblasts (NHLF); assay: Nuclear count in the HCA, standard assay; type: cell-based; settings: Fibroblast, 48 h, 5 ng/ml TGF–β1, 48 h
Protocol: as §1, §2

In the case of O=C(CCCCCCC(=O)Nc1ccccc1)NO [Vorinostat], the IC50 ([1]; 48 h, NHLF, 5 ng/ml TGF–β1 for 48 h, compound added with TGF–β1, mean ± SD) is reported as 5.4 µM, the inhibition at 10 µM ([1]; read-out: Effect HCA at 10 µM [% inhibition], 10 µM compound, 5 ng/ml TGF–β1, 48 h) is reported as 101% and the IC50 [2] is reported as greater than 25 µM.

Source: PMC6261607, “Novel high–throughput myofibroblast assays identify agonists with therapeutic potential in pulmonary fibrosis that act via EP2 and EP4 receptors” (PLoS ONE, 2018)
